Values quoted from earlier work in patent publication US5424329A, “Indole-2-carboxamides as inhibitors of cell adhesion” (Warner-Lambert Company, priority 1993, dated 1995).

Columns and labels:
[1] = test system: TPA-mediated HIV expression in HIV-infected cells; details: Hamamoto et al. 1989; cited from earlier work
[2] = test system: TPA-mediated CD4 down regulation in HIV-infected cells; details: Hamamoto et al. 1989; cited from earlier work

CN[C@@H]1C[C@H]2O[C@@](C)([C@@H]1OC)n1c3ccccc3c3c4c(c5c6ccccc6n2c5c31)C(=O)NC4 [Staurosporine]
inhibition of TPA-mediated augmentation of HIV expression [1]: effective TPA inhibitor
inhibition of TPA-mediated CD4 down regulation [2]: effective TPA inhibitor
